Experimental data: PubChem BioAssay AID1224830 (NIAID, 2016)

Assay: 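Host factors that control LPS-induced TNF expression in human macrophages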 (primary screen)
System: human THP-1 monocytic leukaemia cells, TNF dual-luciferase reporter clone, PMA-differentiated to macrophage-like cells
Knock-down reagent: siRNA pool against human genes, 50 nM
Time to read-out: LPS for 4 h, given about 3 days after siRNA transfection
Treatment: bacterial LPS (TLR4 ligand), 10 ng/ml
Detection: 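Ratio of firefly to renilla light, scaled to the plate median and expressed as a robust z-score per replicate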
Scale: TNF reporter robust z-score: higher = stronger TNF reporter response to LPS
Call rule: 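a well is active when its z-score exceeds 2.8 or falls below -1.5; control wells carry no call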
Shown is an unselected part of about 18,000 reagents. About 2,900 of all reagents (16%) were called active. 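Calls are made per well; low scores hint the gene aids the LPS response, high scores that it dampens it.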 Entries without a mark were called inactive. Repeated entries: four replicate wells of each siRNA pool.

no.	gene	TNF reporter robust z-score
1	MAML1	-0.49
2	MAML1	-0.12
3	MAML1	-0.32
4	MAML1	-0.02
5	HBG2	1.82
6	HBG2	2
7	HBG2	0.73
8	HBG2	-1.29
9	POLA2	0.14
10	POLA2	0.01
11	POLA2	-0.27
12	POLA2	0.24
13	GALNT10	1.44
14	GALNT10	-1.1
15	GALNT10	0.75
16	GALNT10	0.23
17	TSHZ3	2.36
18	TSHZ3	1.06
19	TSHZ3	-0.34
20	TSHZ3	0.77
21	ZC3H8	-0.62
22	ZC3H8	-0.99
23	ZC3H8	-0.63
24	ZC3H8	-0.67
25	KRT81	-0.93
26	KRT81	-1
27	KRT81	-0.44
28	KRT81	-1.06
29	CCN5	-0.9
30	CCN5	-0.51
31	CCN5	-0.69
32	CCN5	-0.53
33	LSR	-1.41
34	LSR	-0.57
35	LSR	-0.88
36	LSR	-0.79
37	SLC5A2	-0.23
38	SLC5A2	0.93
39	SLC5A2	0.63
40	SLC5A2	1.86
41	NLRP10	0.6
42	NLRP10	1.04
43	NLRP10	0.19
44	NLRP10	0.87
45	ASB9	0.22
46	ASB9	0.28
47	ASB9	3.89 (active)
48	ASB9	2.59

Records listed so far with an active call:
gene	TNF reporter robust z-score
ASB9	3.89 (active)

The listing continues.
no.	gene	TNF reporter robust z-score
49	MRPL17	0.17
50	MRPL17	0.33
51	MRPL17	1.93
52	MRPL17	0.8
53	MAGOHB	-0.15
54	MAGOHB	1.39
55	MAGOHB	-0.05
56	MAGOHB	1.89
57	DDX27	1.39
58	DDX27	-0.55
59	DDX27	-0.17
60	DDX27	0.28
61	NME9	0.1
62	NME9	0.6
63	NME9	-0.15
64	NME9	0.22
65	COX10	-0.39
66	COX10	0.2
67	COX10	0.63
68	COX10	1.18
69	B3GLCT	-1.71 (active)
70	B3GLCT	-1.69 (active)
71	B3GLCT	-1.8 (active)
72	B3GLCT	-1.89 (active)
73	DLG1	1.2
74	DLG1	1.58
75	DLG1	1.1
76	DLG1	2.76
77	DLG1	-0.62
78	DLG1	-1.08
79	DLG1	-0.45
80	DLG1	-0.18
81	BLTP3B	1.43
82	BLTP3B	-0.24
83	BLTP3B	-0.46
84	BLTP3B	-0.7
85	COMMD8	-0.81
86	COMMD8	0.13
87	COMMD8	-0.38
88	COMMD8	-0.15
89	H2AC6	0.75
90	H2AC6	3.29 (active)
91	H2AC6	2.93 (active)
92	H2AC6	3.3 (active)
93	WDR55	-1.19
94	WDR55	-0.52
95	WDR55	-0.41
96	WDR55	-0.51
97	SYNPO	0.32
98	SYNPO	0.66
99	SYNPO	-0.31
100	SYNPO	0.19
101	FAP	0.75
102	FAP	0.04
103	FAP	1.09
104	FAP	0.19
105	SELENOK	0.65
106	SELENOK	1.2
107	SELENOK	1.05
108	ADAM33	2.01
109	ADAM33	2.83 (active)
110	ADAM33	1.48
111	ADAM33	1.31
